# Measurements reported in PubChem BioAssay AID493014 (National Center for Advancing Translational Sciences (NCATS), 2011).
# Some of the results follow. Shown are side measurements of this screen, not its main read-out; they come without a call. Most of these compounds were active or inconclusive in the main read-out, so they are no random draw. The note in brackets gives the kind of curve behind each potency; many fits are weak.
# Experiment: qHTS Assay to Find Inhibitors of Chronic Active B-Cell Receptor Signaling
# Conditions: ABC-DLBCL IkBa-CBG/CBR reporter, luminescence ratio (green luciferase fused to IkBa over red control in TMD8 lymphoma cells), 4 h
# How it was run: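 Doxycycline induced both beetle luciferases in TMD8 lymphoma cells; IKK-driven degradation limits the IkappaBalpha-fused green signal, while red luminescence normalises for cell number and nonspecific effects. Compounds tested up to 46 uM, 4 hrs.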
# [1] = measured here: CBR red luminescence, cell number
# [2] = measured here: IkBa-CBG green luminescence
SMILES,AC50 [1],AC50 [2]
COc1ccc(NS(=O)(=O)c2ccc(NC(=S)NC(=O)CC(C)C)cc2)cc1,"0.411 µM [rising, full curve, poor fit]",–
O=C(Nc1ccc(SC(F)F)cc1)C1=COCCO1,"2.31 µM [rising, partial curve, poor fit]",–
Cc1ccccc1/C=N/NC(=O)Cc1ccc(Cl)cc1,"3.55 µM [rising, full curve, poor fit]",–
CC(=O)N1CCN(c2nc3c(C)ccc(Cl)c3s2)CC1,"5.62 µM [rising, single point]",–
Cc1ccc2nc(N3C(=O)C(O)=C(C(=O)c4ccc(C)o4)C3c3cccc(O)c3)sc2c1 (stereo not given),"0.447 µM [falling, full curve, poor fit]",–
O=C(CCn1c(=O)oc2ccc(Cl)cc21)N1CCN(c2ccccc2)CC1,"5.62 µM [rising, single point]",–
Nc1ccc(/C=C/c2ccc3ncccc3c2)cc1,"35.5 µM [falling, single point]",–
O=C1C=C(c2ccccc2)C(=O)N1Nc1ccccc1,"23.1 µM [rising, partial curve, poor fit]","25.9 µM [falling, single point]"
O=C(NCC(=O)N1CCN(c2ccccc2O)CC1)c1cccs1,"29.1 µM [falling, single point]",–
NNC(=O)c1ccc(Oc2cc(Cl)cc(Cl)c2)o1,"8.91 µM [falling, partial curve, poor fit]",–
CCC(C)Sc1nc2c(cnn2-c2ccc(C)c(C)c2)c(=O)[nH]1 (stereo not given),"13 µM [rising, partial curve, poor fit]",–
Cc1nn(-c2ccccc2)c(C)c1CCC(=O)O,"8.91 µM [falling, partial curve]",–
CCOC(=O)C1CCCN(C(=O)CCc2nc3sc4c(c3c(=O)[nH]2)CCCC4)C1 (stereo not given),"0.58 µM [rising, full curve, poor fit]",–
COC(=O)c1ccccc1S(=O)(=O)Oc1ccc(-c2ccc(C(=O)O)cc2)cc1,"2 µM [falling, partial curve]",–
CCC(=O)Nc1nnc(SCC(=O)N2c3ccccc3CC2C)s1 (stereo not given),"23.1 µM [rising, partial curve, poor fit]",–
CC1CN(C(=O)CCC(=O)N2CCOCC2)c2ccccc2O1 (stereo not given),"1.58 µM [falling, full curve]",–
NNC(=O)c1cc2ccccc2cc1NS(=O)(=O)c1ccccc1,"20 µM [rising, partial curve, poor fit]",–

# In another format: results already given.
SMILES | AC50 [1] | AC50 [2]
CC(=O)N1CCN(c2nc3c(C)ccc(Cl)c3s2)CC1 | 5.62 µM [rising, single point] | –
CCC(C)Sc1nc2c(cnn2-c2ccc(C)c(C)c2)c(=O)[nH]1 (stereo not given) | 13 µM [rising, partial curve, poor fit] | –

# Continuation.

SMILES,AC50 [1],AC50 [2]
Cc1cc(C)nc(SCc2ccc(C(=O)N/N=C3\CC(C)CC(C)(C)C3)cc2)n1 (stereo not given),"23.1 µM [rising, single point]",–
COc1cc2c(C#N)c(N3CCCCC3)nc(N)c2c(N)n1,"2 µM [falling, partial curve, poor fit]",–
O=C(Nc1cccc(NC(=O)c2cccs2)c1)c1ccc(F)cc1,"35.5 µM [falling, single point]",–
O=C(O)CCC(=O)N1CCc2cc(S(=O)(=O)N3CCC(Cc4ccccc4)CC3)ccc21,"20.6 µM [falling, partial curve, poor fit]",–
O=C(CSC1=NS(=O)(=O)c2ccccc2N1)c1ccccc1,"4.61 µM [falling, partial curve]",–
O=C(O)c1ccc(N/N=C/c2cc3c(cc2[N+](=O)[O-])OCO3)cc1,"0.0891 µM [falling, full curve, poor fit]","3.16 µM [rising, full curve, poor fit]"
C/C(CC(=O)Nc1ccc2ccccc2c1)=N\NC(=O)c1ccc(O)c(O)c1,"2.51 µM [falling, full curve, poor fit]",–
Cn1nc(C(=O)Nc2cc(Cl)ccc2N2CCCC2)c2ccccc2c1=O,"7.31 µM [rising, partial curve, poor fit]",–
COc1ccccc1NC(=O)NCc1ccc(C)n1C,"5.62 µM [rising, single point]",–
CCN(Cc1ccccc1)C(=O)c1[nH]c2ccc(OC)cc2c1C,"5.01 µM [rising, partial curve, poor fit]",–
COc1ccccc1CNC(=O)C(=O)NCC(c1ccco1)N1CCOCC1 (stereo not given),"12.6 µM [falling, partial curve, poor fit]",–
CSc1nc(N)n2nc(-c3ccccc3)cc2n1,"5.01 µM [falling, partial curve, poor fit]",–
CCN(CC(=O)NCc1ccccc1Cl)CC(=O)Nc1c(F)cccc1F,"0.794 µM [rising, full curve, poor fit]",–
CCCOc1ccc(C2=NNC(=O)CC2)cc1,"23.1 µM [rising, partial curve]",–
COc1cccc(/C=N/NC(=O)c2cc(-c3cccn3C)n[nH]2)c1,"5.01 µM [falling, partial curve, poor fit]",–
Cc1nc(NC(=O)CSc2nnc(C3CC3)n2C)sc1C,"5.01 µM [falling, partial curve]",–
